Data: publication PMC5974087
No constants are given. Whether binding was seen depends on the method and setting. Binding seen in cells or lysates may run through a third protein. Some binding calls cover weakened binding; strength is not graded here. For some assays here: Sequences can lack the tags named with a protein.

Protein sequences, listed by entry. Tags and fused reporters are not part of them. Residues count along the entry.
UniProt O75334: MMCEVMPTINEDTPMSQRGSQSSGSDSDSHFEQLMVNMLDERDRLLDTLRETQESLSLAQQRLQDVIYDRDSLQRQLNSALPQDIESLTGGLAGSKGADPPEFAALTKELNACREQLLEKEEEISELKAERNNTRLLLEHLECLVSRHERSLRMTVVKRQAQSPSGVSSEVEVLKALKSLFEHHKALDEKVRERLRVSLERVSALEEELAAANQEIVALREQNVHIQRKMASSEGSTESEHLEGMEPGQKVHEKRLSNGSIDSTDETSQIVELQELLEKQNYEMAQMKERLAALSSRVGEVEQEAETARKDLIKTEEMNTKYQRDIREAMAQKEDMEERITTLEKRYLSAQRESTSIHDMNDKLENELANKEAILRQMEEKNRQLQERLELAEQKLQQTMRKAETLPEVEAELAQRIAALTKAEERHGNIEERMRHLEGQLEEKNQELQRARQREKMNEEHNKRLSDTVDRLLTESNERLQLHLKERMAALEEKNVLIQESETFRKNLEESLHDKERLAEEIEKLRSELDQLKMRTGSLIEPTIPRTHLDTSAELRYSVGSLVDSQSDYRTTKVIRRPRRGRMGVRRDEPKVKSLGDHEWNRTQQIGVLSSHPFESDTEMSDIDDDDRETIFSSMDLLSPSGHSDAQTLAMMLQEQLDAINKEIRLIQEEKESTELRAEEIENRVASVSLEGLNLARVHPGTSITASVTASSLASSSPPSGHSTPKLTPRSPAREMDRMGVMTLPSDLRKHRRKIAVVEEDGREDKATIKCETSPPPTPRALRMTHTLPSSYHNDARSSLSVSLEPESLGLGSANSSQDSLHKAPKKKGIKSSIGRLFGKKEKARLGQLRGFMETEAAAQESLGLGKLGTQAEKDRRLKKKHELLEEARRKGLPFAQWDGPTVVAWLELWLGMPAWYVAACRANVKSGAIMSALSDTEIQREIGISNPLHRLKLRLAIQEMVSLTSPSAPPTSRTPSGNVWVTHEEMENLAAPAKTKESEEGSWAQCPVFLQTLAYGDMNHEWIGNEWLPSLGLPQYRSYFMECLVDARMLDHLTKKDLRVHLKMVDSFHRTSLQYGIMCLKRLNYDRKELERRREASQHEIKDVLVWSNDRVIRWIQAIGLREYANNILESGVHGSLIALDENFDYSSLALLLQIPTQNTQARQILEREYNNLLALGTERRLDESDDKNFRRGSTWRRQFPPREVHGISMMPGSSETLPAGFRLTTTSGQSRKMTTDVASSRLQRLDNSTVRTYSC
UniProt Q13332, residues 30-1948: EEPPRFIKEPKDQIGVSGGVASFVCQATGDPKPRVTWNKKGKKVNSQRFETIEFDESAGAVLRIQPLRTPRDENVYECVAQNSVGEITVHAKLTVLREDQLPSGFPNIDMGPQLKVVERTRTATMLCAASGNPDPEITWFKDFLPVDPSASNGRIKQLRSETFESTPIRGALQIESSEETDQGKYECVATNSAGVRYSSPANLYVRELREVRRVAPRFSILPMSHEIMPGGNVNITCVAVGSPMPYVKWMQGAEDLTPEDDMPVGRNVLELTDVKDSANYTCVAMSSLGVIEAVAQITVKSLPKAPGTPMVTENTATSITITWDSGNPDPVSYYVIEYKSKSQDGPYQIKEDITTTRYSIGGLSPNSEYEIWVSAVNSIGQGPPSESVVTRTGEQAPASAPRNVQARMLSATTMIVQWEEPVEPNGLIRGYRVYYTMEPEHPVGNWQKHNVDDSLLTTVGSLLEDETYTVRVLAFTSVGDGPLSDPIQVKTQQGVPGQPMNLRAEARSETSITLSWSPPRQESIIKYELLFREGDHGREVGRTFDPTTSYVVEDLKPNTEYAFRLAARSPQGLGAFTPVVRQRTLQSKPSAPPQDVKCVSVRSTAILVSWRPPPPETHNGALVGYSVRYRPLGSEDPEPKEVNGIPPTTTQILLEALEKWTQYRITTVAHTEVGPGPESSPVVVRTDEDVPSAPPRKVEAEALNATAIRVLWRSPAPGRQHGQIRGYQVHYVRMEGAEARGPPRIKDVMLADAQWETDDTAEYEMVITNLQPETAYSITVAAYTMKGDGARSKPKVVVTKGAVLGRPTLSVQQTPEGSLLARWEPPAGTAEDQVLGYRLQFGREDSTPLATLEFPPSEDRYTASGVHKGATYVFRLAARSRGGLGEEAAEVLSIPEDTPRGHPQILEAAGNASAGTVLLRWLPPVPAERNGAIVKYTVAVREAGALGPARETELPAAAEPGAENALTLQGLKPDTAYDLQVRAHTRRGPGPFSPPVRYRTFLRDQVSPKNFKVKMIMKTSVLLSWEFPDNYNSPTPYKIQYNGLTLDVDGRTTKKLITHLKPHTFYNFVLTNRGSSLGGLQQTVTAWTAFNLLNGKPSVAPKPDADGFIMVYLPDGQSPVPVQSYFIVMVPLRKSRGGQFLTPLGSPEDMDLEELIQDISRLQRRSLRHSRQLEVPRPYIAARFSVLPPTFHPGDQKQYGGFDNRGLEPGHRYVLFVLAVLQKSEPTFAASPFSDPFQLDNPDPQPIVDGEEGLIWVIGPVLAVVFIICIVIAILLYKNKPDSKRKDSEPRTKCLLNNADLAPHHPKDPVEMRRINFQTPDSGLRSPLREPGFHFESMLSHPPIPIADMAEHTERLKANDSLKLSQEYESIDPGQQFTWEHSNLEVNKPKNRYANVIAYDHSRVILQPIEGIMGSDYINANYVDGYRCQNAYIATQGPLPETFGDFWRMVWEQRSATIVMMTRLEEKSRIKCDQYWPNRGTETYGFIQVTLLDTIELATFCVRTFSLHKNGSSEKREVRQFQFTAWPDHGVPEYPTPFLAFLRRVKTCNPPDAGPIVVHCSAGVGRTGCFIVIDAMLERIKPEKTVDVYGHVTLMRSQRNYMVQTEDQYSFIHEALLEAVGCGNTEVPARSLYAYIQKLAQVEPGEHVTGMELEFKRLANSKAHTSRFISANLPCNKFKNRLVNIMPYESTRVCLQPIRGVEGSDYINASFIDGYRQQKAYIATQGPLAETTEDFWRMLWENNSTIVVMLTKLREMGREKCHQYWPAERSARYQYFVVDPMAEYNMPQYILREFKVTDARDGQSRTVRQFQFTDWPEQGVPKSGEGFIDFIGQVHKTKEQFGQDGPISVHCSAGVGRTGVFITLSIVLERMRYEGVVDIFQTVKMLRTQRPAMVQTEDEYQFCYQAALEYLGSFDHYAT
UniProt Q13136: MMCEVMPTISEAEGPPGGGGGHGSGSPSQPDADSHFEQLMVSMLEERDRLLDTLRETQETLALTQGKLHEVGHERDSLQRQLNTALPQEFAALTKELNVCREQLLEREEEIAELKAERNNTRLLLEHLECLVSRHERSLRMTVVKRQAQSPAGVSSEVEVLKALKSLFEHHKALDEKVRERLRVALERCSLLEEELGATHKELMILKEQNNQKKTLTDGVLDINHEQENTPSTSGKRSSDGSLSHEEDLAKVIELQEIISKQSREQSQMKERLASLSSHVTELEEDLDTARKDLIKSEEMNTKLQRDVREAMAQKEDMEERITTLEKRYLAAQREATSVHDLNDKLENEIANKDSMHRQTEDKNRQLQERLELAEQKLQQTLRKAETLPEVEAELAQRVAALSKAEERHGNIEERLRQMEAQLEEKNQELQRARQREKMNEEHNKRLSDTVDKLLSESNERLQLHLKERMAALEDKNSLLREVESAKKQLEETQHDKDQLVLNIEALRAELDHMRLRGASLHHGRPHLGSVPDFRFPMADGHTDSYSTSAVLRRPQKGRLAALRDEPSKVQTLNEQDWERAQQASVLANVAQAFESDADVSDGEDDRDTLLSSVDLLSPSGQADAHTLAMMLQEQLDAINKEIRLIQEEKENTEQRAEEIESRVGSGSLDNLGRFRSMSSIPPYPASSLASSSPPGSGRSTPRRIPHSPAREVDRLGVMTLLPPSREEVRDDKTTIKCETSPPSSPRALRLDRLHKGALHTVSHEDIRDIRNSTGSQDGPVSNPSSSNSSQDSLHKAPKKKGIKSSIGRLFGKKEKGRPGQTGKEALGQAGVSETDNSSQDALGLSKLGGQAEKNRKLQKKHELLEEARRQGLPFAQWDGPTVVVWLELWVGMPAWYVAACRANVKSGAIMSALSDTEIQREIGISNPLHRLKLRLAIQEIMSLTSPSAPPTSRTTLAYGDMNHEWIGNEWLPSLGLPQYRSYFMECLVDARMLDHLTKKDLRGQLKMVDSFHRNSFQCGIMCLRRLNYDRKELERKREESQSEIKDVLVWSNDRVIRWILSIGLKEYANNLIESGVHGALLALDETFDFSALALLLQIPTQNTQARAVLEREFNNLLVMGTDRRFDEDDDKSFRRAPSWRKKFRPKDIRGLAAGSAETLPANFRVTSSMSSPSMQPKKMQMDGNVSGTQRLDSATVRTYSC
UniProt Q86UR5: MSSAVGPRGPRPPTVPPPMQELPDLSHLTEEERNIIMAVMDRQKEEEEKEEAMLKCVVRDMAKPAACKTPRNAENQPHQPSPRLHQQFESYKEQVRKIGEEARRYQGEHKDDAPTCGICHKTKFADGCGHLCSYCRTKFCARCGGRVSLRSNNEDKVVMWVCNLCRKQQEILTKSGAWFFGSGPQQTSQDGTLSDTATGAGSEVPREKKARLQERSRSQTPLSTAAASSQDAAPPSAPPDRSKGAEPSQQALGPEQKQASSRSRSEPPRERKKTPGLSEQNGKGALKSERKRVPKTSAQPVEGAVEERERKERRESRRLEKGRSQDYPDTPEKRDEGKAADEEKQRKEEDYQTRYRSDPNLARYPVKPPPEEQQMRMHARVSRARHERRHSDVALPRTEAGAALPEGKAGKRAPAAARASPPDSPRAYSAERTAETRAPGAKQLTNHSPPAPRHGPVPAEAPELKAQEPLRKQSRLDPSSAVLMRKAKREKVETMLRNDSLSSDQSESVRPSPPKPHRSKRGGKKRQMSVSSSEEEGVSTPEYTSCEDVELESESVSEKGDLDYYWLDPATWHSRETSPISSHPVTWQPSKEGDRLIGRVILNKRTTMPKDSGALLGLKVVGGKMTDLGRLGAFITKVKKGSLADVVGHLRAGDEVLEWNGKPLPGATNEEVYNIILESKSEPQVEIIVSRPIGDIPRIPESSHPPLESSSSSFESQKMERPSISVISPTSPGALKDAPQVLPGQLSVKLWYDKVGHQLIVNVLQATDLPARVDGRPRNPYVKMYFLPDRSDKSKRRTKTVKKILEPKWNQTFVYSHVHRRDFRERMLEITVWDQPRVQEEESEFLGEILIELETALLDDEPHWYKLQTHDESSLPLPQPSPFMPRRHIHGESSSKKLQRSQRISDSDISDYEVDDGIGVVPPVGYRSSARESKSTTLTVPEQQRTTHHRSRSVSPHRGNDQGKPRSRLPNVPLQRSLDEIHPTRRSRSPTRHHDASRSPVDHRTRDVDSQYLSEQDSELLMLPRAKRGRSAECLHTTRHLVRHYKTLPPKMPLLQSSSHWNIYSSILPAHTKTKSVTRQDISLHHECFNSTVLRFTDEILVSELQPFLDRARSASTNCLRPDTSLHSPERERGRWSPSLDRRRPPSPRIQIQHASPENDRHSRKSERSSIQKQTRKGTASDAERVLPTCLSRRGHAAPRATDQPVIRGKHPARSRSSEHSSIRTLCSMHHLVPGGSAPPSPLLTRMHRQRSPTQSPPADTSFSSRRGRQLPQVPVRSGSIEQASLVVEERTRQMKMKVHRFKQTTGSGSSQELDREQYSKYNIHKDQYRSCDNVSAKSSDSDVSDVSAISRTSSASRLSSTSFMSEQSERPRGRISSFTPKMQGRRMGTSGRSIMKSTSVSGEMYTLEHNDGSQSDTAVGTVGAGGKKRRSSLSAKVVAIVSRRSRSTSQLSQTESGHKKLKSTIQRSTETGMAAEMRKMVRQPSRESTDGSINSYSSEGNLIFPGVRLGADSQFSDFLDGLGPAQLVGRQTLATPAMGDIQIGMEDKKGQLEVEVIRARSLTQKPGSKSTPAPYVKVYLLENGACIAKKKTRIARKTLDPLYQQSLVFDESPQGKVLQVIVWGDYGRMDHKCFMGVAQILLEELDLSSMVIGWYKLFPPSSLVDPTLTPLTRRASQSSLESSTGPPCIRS

Key:
[1] = biological target: FLAG-FFL-liprin-α2 (human) (UniProt O75334); assay: co-IP; LUMIER in HeLa and HeLa-PIH1D2 cells: FLAG-FFL-liprin-α2 bait, RL-tagged partners as prey
[2] = biological target: T1, SPAG1, LUMIER fusion (human) (UniProt Q07617); assay: co-IP; LUMIER: RL fusion (prey) and 3xFLAG-FFL fusion (bait) transiently expressed in HEK293, anti-FLAG coated wells, HNTG buffer, 3 h at 4 °C; co-IP efficiency from luciferase activities
T1 sequence: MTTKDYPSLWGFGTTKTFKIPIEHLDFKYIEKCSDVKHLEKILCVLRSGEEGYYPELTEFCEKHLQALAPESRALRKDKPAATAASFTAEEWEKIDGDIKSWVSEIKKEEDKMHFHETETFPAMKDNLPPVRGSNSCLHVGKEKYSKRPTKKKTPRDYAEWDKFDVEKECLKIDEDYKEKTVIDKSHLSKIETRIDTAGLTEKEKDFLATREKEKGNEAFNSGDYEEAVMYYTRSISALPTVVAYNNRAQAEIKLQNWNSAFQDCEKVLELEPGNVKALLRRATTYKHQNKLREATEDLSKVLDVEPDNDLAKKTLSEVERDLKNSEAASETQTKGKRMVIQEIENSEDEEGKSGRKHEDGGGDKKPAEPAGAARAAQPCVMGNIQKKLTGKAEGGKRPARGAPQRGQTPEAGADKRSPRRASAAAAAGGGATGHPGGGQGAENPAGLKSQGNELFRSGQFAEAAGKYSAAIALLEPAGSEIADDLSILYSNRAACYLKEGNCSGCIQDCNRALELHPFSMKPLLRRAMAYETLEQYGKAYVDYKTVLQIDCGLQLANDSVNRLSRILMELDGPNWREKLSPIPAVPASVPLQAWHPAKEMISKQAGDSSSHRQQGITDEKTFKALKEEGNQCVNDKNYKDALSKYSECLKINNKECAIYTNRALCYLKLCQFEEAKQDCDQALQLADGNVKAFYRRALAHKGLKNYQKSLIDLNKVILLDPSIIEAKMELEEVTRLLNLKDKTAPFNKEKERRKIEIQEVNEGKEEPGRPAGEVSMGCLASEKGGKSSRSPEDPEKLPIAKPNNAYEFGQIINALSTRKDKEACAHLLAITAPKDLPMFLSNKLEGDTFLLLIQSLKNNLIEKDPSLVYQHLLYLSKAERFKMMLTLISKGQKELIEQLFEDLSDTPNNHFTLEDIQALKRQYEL

[3] = biological target: T2, PIH1D2, LUMIER fusion (human) (UniProt Q8WWB5); assay: as above
T2 sequence: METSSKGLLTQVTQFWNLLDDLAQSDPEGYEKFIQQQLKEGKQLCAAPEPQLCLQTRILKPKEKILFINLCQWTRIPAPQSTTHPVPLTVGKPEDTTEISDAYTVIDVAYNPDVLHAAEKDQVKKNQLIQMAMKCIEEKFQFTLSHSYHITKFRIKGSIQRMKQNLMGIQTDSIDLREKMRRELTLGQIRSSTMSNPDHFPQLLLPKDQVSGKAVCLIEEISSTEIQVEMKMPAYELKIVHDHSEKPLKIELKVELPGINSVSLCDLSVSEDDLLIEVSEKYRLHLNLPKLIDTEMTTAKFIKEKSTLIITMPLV

binding [1] | binding [2] | binding [3] | Substance
binds |  |  | PTPRS, LUMIER fusion (from UniProt Q13332 30-1948)
binds |  |  | liprin-α1, LUMIER fusion (from UniProt Q13136 1-1202)
binds | binds |  | RIMS1, LUMIER fusion (from UniProt Q86UR5 1-1692)
 |  | binds | FLAG-FFL-liprin-α2 (from UniProt O75334 1-1257)
